Laboratory results as given in PubChem BioAssay AID540256 (National Center for Advancing Translational Sciences (NCATS), 2011).
Hit rate of the full screen: of about 300,000 compounds, about 3,700 (1.2%) were called active. Inconclusive results, whose numbers are uncertain, are shown with a selection of clear calls. Calls follow the shape of the full dose curve; tested in HEK293 cells. Potencies of inconclusive entries are doubtful fits and often do not repeat.

Experiment: qHTS for Inhibitors of binding or entry into cells for Lassa Virus; also: nearly all actives have a fitted effect of over 50% in size
Conditions: Lassa virus pseudotype entry inhibition, cell reporter; activity change, negative = inhibition: at 37.9 µM (top of the series) unless noted
% is scaled to controls: 0 for no effect and ±100 for the full control effect; potency is read from the fitted curve at half-maximal effect.

SMILES | activity change, negative = inhibition | Potency
Cc1ccc(NC2CCCN(C(=O)c3ccc(-n4ccnc4)cc3)C2)cc1C (stereo unspecified) | inactive: -22.3% | 
O=C1CN(C(=O)/C=C/c2ccc(Br)cc2)CCN1 |  | inconclusive: 22.4 µM [activator, single point]
CN1CCc2nc(SCC(=O)OC(C)(C)C)c(C#N)cc2C1 | inactive: 2.19% | 
COc1cc(/C=C2\C(=O)N(C)C(=S)N2C)ccc1O |  | inconclusive: 14.6 µM [inhibitor, partial curve, poor fit]
O=C(CSc1ccccc1)NCCc1ccccc1 | inactive: 3.33% [at 46.1 µM] | 
O=C(COc1ccc(S(=O)(=O)N2CCOCC2)cc1Cl)NCC1CCCO1 (stereo unspecified) |  | inconclusive: 22.4 µM [inhibitor, single point]
CCN1C(=O)C(CC(=O)Nc2ccc(OC)cc2)N(CCCN2CCN(c3ccc(OC)cc3)CC2)C1=S (stereo unspecified) |  | inconclusive: 20 µM [inhibitor, partial curve, poor fit]
CC(=O)C1=C(C)N(Cc2ccccc2)C(=O)N[C@H]1CCc1ccccc1 |  | active: 11.6 µM
Cn1c(=O)[nH]c(=O)c2c1nc(Br)n2CC(O)COc1ccc(Cl)cc1 (stereo unspecified) |  | inconclusive: 20.6 µM [inhibitor, single point]
O=c1oc2ccccc2cc1-c1csc(Nc2nc3c(F)cccc3s2)n1 |  | inconclusive: 4.47 µM [inhibitor, full curve, poor fit]
CC(C)N1C(=O)/C(=C/C=C/c2ccco2)C(=O)N(Cc2ccco2)C1=O |  | inconclusive: 22.4 µM [inhibitor, single point]
O=C(c1ccccc1)C(Cn1cncn1)C(Sc1ccccc1)c1ccccc1 (stereo unspecified) |  | active: 22.4 µM
Cc1ccc(CN(C(=O)COc2cccc([N+](=O)[O-])c2)c2ccccn2)cc1 | inactive: -29.9% [at 46.1 µM] | 
Cc1ccc(Nc2nnc(-c3ccc(N4CCOCC4)c([N+](=O)[O-])c3)c3ccccc23)cc1 |  | inconclusive: 17.8 µM [inhibitor, partial curve, poor fit]
Cc1ccc(C(CNS(=O)(=O)c2ccc(F)cc2C)N2CCN(C)CC2)cc1 (stereo unspecified) |  | inconclusive: 28.2 µM [inhibitor, single point]
Cc1ccc(CNC(=O)CSc2c3c(nc4cc(Cl)ccc24)CCCC3)o1 |  | active: 20.6 µM
CCOc1ccc(OCC)c(S(=O)(=O)N2CCN(c3cccc(C)c3C)CC2)c1 |  | inconclusive: 22.4 µM [inhibitor, partial curve, poor fit]
CCN(CC)S(=O)(=O)c1cc(C(=O)NC2CCCCC2)ccc1C |  | inconclusive: 32.6 µM [inhibitor, single point]
Cc1cccc(-c2noc(-c3cc4ccccc4oc3=O)n2)c1 | inactive: 8.12% | 
Cc1ccc(OC(=O)Nc2ccccc2)cc1 | inactive: -0.522% [at 46.1 µM] | 
COc1cc(C(=O)NNC(=S)Nc2ccc(S(N)(=O)=O)cc2)cc(OC)c1OC |  | inconclusive: 14.1 µM [inhibitor, single point]
O=C(Nc1cccnc1)c1ccc(COc2ccccc2Cl)o1 |  | inconclusive: 32.6 µM [inhibitor, partial curve, poor fit]

SMILES | activity change, negative = inhibition | Potency
Cc1cc(C)cc(N(C(=O)CCC(=O)Nc2cc(C)on2)C(C(=O)NC2CCCC2)c2ccco2)c1 (stereo unspecified) |  | inconclusive: 15.8 µM [inhibitor, partial curve, poor fit]
COc1ccc(OC)c(CCNC(=O)c2sc3nc4n(c(=O)c3c2C)CCC4)c1 | inactive: -11.1% [at 46.1 µM] | 
COc1ccc(OCC(=O)N/N=C(\C)CC(=O)Nc2ccc(NC(C)=O)cc2)cc1 |  | inconclusive: 7.08 µM [inhibitor, full curve, poor fit]
CN(C)Cc1c(C(=O)N/N=C/CCc2ccccc2)nnn1-c1nonc1N |  | inconclusive: 7.08 µM [activator, partial curve, poor fit]
COc1cc2c(cc1OC)C(COc1ccc(F)cc1)N(C(=O)Cc1ccc(F)cc1)CC2 (stereo unspecified) |  | inconclusive: 1.78 µM [inhibitor, full curve, poor fit]
O=C(Nc1ccccc1Cl)/C(Cl)=C(\Cl)S(=O)c1ccccc1 (stereo unspecified) |  | active: 8.91 µM
Cc1ccc(NC(=O)CSc2nnc(CNC(=O)c3ccco3)n2C)cc1C | inactive: 11% | 
Oc1ccccc1C(=S)N1CCN(c2cccc(Cl)c2)CC1 |  | inconclusive: 12.6 µM [inhibitor, single point]
COc1cc(SC)ccc1C(=O)Nc1nccs1 |  | inconclusive: 1 µM [inhibitor, full curve, poor fit]
CC(=O)NNc1cc(=O)c2c(=O)n(C)c(=O)n(C)c2[nH]1 |  | inconclusive: 0.447 µM [inhibitor, full curve, poor fit]
Cc1ccc(-c2nnc(SCCC(=O)N3CCOCC3)o2)cc1 |  | inconclusive: 35.5 µM [inhibitor, single point]
O=C(CCc1ccccc1)Nc1ccc2c(c1)C(=O)OC2 |  | inconclusive: 10 µM [inhibitor, partial curve, poor fit]
CCCC1=[N+](CC(=O)c2ccc(Br)cc2)CCn2cccc21 |  | inconclusive: 35.5 µM [inhibitor, single point]
CCOc1ccc(C(=O)Nc2ccc(C(F)(F)F)n(C)c2=O)cc1 | inactive: -0.443% [at 46.1 µM] | 
c1ccc(CSc2ccc(-c3cccs3)nn2)cc1 |  | inconclusive: 11.2 µM [inhibitor, single point]
CC(C)(C)C1=NN(c2ccc([N+](=O)[O-])cc2)C(c2ccccc2)C1 (stereo unspecified) |  | inconclusive: 22.4 µM [inhibitor, partial curve, poor fit]
Cc1cccc(C)c1-n1c(SCC(=O)NCc2ccco2)nc2ccccc2c1=O | inactive: -21% | 
CC(C)(C)NC(=O)NC(=O)Cn1ccsc1=N |  | inconclusive: 35.5 µM [activator, partial curve, poor fit]
CC(C)COC(=O)c1ccccc1N1C(=O)C2C3CCC(C3)C2C1=O (stereo unspecified) |  | inconclusive: 1.26 µM [inhibitor, single point]
Cc1cc(C(=O)CS(=O)(=O)c2ccccc2)cc(C)c1OC(=O)N(C)C | inactive: -19.4% [at 46.1 µM] | 
Fc1ccc(F)c(NC(=S)NCCc2ccccc2)c1 |  | inconclusive: 1.26 µM [inhibitor, single point]
CCc1ccc(/C=C/C(=O)c2cc(Br)ccc(=O)c2O)cc1 |  | inconclusive: 11.2 µM [inhibitor, single point]

By substructure, the compounds so far with bromine (4)
SMILES | activity change, negative = inhibition | Potency
O=C1CN(C(=O)/C=C/c2ccc(Br)cc2)CCN1 |  | inconclusive: 22.4 µM [activator, single point]
Cn1c(=O)[nH]c(=O)c2c1nc(Br)n2CC(O)COc1ccc(Cl)cc1 (stereo unspecified) |  | inconclusive: 20.6 µM [inhibitor, single point]
CCCC1=[N+](CC(=O)c2ccc(Br)cc2)CCn2cccc21 |  | inconclusive: 35.5 µM [inhibitor, single point]
CCc1ccc(/C=C/C(=O)c2cc(Br)ccc(=O)c2O)cc1 |  | inconclusive: 11.2 µM [inhibitor, single point]

Following part.

SMILES | activity change, negative = inhibition | Potency
COc1ccc(C)cc1-n1nnnc1SCn1nnc2ccccc2c1=O |  | inconclusive: 14.6 µM [inhibitor, partial curve, poor fit]
Cc1nc(SCC(=O)NCc2ccco2)c2c3c(sc2n1)CCCC3 | inactive: -24.9% | 
O=C(Oc1ccccc1)N1CCOCC1 |  | inconclusive: 15.8 µM [inhibitor, single point]
COc1ccc(-n2ncc(N(C)n3cccc3)c(Cl)c2=O)cc1 |  | inconclusive: 35.5 µM [inhibitor, single point]
CC(C)OC(=O)CSc1nnc2c(n1)[nH]c1ccc(F)cc12 |  | inconclusive: 32.6 µM [inhibitor, partial curve, poor fit]
COc1cc2c(cc1OC)CN(C(=O)/C=C/c1ccc(F)cc1)CC2 |  | inconclusive: 12.6 µM [inhibitor, partial curve, poor fit]
CCCS(=O)(=O)c1ncc(Cl)c(C(=O)Nc2scc(-c3ccccc3)c2C(=O)OCC)n1 |  | inconclusive: 12.6 µM [inhibitor, single point]
Cc1cc(-c2ccccc2)nc(Oc2cccc(C(F)(F)F)c2)c1S(C)(=O)=O |  | inconclusive: 1.78 µM [inhibitor, full curve, poor fit]
O=C(/C=C/Nc1ccc(F)cc1)c1ccc(Oc2ncccn2)cc1 | inactive: 8.26% | 
CC(C)CC(NC(=O)c1ccccc1)C(=O)N/N=C/c1ccco1 (stereo unspecified) |  | inconclusive: 0.184 µM [inhibitor, full curve, poor fit]
CC(C)c1ccc(CNc2nc(-c3ccco3)nn2S(=O)(=O)c2ccc3ccccc3c2)cc1 | inactive: -0.456% [at 46.1 µM] | 
COc1cccc(CN(Cc2ccccc2F)S(=O)(=O)c2ccc(S(=O)(=O)NCc3ccccc3)cc2)c1 |  | inconclusive: 16.4 µM [inhibitor, partial curve]
CCOC(=O)/C(C(=O)Nc1ccc(Br)cc1)=C1/NC(C)(C)Cc2ccccc21 |  | inconclusive: 35.5 µM [inhibitor, single point]
CCOc1cc(C)c(S(=O)(=O)Nc2ccc(F)cc2)cc1C | inactive: 5.2% | 
CCOc1ccc(N2C(=O)CC(NC3CCN(C(=O)c4ccc(F)cc4)CC3)C2=O)cc1 (stereo unspecified) |  | inconclusive: 5.62 µM [activator, single point]
CN(C)S(=O)(=O)c1cccc(NC(=O)c2n[nH]c(=O)c3ccccc23)c1 | inactive: -0.32% [at 46.1 µM] | 
CN(C(=O)c1ccccc1)c1ccccc1C(=O)NCCc1ccccc1 | inactive: 21.8% [at 46.1 µM] | 
Cc1nn(C)c(C(=O)N/N=C/c2cccc(Oc3ccccc3)c2)c1Br |  | inconclusive: 6.31 µM [inhibitor, single point]
COc1ccc(C(=O)CC2(O)C(=O)N(Cc3ccccc3Cl)c3ccccc32)cc1 (stereo unspecified) |  | inconclusive: 35.5 µM [inhibitor, partial curve, poor fit]
CCOc1ccc(-n2c(C)nc3cc(C(=O)NCCC4=CCCCC4)ccc32)cc1 |  | inconclusive: 1.12 µM [inhibitor, partial curve, poor fit]
Cn1nc(C(=O)N2CCN(S(=O)(=O)c3ccc(Cl)cc3)CC2)c2ccccc2c1=O |  | inconclusive: 15.8 µM [inhibitor, single point]
CCn1cc(C(=O)NCc2cccnc2)c(=O)c2cc(F)c(N3CCN(C(=O)c4ccco4)CC3)cc21 |  | inconclusive: 35.5 µM [inhibitor, single point]
